# In patent publication US12466850B2 (priority 2019, dated 2025):
# Assay: general procedure: solution-phase peptide synthesis; (1-cyano-2-ethoxy-2-oxoethylideneaminooxy)dimethylamino-morpholino-carbenium hex
# Details: coupling step
Substance,step yield (four-step yield) [%],step yield (two-step yield) [%]
Cbz-Ser(t-Bu)-Dap(Boc)-Val-Pro-Phe-Phe-OFESE,78,–
Boc-Val-Pro-Phe-Phe-OFESE,–,91
